Reference: paper PMC4201560
Results are given in words; binding and its absence hold for the method and conditions named. Binding seen in cells or lysates may run through a third protein. Some results given as binding are weak or reduced against the parent protein; the word gives no strength. Sequences can lack the tags named with a protein.

By UniProt entry, the sequences of proteins in these tests, tags left out.
UniProt O14063: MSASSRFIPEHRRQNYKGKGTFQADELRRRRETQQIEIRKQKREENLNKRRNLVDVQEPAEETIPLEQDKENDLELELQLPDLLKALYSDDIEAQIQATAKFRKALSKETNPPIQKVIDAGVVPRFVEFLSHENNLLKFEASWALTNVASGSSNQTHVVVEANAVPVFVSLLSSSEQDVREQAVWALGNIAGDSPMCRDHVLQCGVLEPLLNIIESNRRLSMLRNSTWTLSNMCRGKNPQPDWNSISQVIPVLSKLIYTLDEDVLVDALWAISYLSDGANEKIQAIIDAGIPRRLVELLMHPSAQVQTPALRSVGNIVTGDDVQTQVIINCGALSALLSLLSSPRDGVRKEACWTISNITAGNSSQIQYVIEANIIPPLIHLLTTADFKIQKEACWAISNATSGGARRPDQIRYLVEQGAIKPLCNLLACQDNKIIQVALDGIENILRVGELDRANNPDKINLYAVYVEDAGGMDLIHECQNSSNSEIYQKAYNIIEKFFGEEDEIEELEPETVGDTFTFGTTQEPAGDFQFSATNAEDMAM

Experiments:
Assay in all cases: pull-down; TAP pull-down: total lysates of iron-starved (Dip 250 µM, 3 h) S. pombe php4Δ cells co-expressing GFP-Php4 and a TAP-tagged karyopherin or TAP alone; IgG-Sepharose 6 Fast-Flow beads, 30 to 60 min at 4°C, washed with lysis buffer; bound fraction blotted with anti-GFP, anti-IgG and anti-α-tubulin
[1] = biological target: Cut15-TAP (S. pombe) (UniProt O14063)
[2] = biological target: T1, Imp1-TAP (S. pombe) (UniProt O94374)
T1 sequence: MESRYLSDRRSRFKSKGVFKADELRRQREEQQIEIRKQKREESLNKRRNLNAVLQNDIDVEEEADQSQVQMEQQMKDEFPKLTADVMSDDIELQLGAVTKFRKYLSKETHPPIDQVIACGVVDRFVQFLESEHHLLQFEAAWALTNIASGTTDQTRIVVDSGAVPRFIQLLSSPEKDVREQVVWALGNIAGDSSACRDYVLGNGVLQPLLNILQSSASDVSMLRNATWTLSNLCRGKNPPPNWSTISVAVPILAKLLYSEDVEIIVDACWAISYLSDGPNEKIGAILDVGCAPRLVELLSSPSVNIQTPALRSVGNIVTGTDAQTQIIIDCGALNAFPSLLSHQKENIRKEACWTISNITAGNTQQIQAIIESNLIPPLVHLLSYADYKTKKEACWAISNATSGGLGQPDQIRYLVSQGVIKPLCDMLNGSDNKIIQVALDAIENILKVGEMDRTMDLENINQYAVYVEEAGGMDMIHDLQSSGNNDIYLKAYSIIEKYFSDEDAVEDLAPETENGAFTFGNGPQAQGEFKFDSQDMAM

[3] = biological target: T2, Sal3-TAP (S. pombe) (UniProt O74476)
T2 sequence: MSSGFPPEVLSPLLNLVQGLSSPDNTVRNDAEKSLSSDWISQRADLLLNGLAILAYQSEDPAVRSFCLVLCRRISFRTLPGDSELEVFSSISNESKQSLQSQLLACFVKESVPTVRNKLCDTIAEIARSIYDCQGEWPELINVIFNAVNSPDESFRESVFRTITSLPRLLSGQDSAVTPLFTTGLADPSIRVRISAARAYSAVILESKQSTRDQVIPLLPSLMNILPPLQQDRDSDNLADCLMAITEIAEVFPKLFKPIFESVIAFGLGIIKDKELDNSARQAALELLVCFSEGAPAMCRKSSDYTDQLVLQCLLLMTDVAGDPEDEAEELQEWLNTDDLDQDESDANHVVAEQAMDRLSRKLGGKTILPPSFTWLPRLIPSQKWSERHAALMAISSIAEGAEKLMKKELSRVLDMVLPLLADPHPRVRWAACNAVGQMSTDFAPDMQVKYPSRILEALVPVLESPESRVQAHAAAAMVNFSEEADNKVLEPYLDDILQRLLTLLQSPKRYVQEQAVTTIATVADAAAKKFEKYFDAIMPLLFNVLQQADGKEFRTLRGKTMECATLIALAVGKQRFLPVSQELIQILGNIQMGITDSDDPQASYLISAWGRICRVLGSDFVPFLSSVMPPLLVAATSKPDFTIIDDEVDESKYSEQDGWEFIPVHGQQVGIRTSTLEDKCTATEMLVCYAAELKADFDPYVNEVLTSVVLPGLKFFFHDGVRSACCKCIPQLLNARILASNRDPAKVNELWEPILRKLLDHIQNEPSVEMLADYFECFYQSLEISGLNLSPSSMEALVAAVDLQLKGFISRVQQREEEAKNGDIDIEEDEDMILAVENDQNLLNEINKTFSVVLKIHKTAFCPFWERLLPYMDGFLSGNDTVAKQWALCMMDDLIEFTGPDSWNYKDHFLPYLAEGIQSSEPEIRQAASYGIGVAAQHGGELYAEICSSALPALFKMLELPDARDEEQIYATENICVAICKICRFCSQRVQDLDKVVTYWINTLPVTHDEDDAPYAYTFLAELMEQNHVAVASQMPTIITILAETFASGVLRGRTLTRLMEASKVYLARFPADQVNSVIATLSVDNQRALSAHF

Measured: binding

B1: GFP-Php4 (protein, UniProt O14318 1-295)
chain: MESSKSPSEVEKSSSASPAPQKPMIRVSKQWVVPPRPKPGRKPALDALGRRKAPIKPRPGPTSALSVEEAKFRVREKQYQDTIGKLQKENNELLEQLEMLQAQLKNSTLDSPKEVEVNSEVVKPDSATTENENRYVNQYNYPVEPPCAKNAVYTEIPIELDPHAFLGDSAKRIRVDSDSKDAKSVPSENGRIRVSMSPQNEINFTPENPAVMEKIRKRGVCNSVEGCLYSGSPKSVKRVRESEETKVYAQLLIDLHKSSKSAPMLKAGPSIAFKLPTMEPNFNDVRPVTSISSSS
binds: all assays above
